This passage reports binding signal results from article PMC5996148.

This is one part of the list.

Among the test systems are TGM1 (human); TGM4 (human); THBD (human); THEM5 (human); THG1L (human); THOC3 (human); THOP1 (human); TIAF1 (human); TICAM2 (human).
What all share (assay): protein microarray (ProtoArray v5.0), streptavidin-Alexa Fluor 647
Common to all, as to details: 3'-biotin; 20 mM Tris (pH 7.5), 5 mM MgCl2, 100 mM KCl, 0.1% Tween-20, A/T-rich and random oligonucleotide blockers; temperature not stated; high values mean tight binding

The test system of assay [1] is THAP domain-containing protein 3 (human).

Regarding “GGGAGGCTGAGGCAGG [G4-1 biotinylated (PQS2)]”, the binding signal in the assay on TGM1 (human) is -0.291 z-score; in the assay with TGM4 (human), -0.274 z-score; in [1], -0.316 z-score; with THBD (human), -0.312 z-score; in the assay on THEM5 (human) it was -0.347 z-score; with THG1L (human), -0.327 z-score. The binding signal in the assay with THOC3 (human) was -0.336 z-score; in the assay with THOP1 (human) it was -0.311 z-score; with TIAF1 (human), -0.3 z-score; with TICAM2 (human), -0.313 z-score.
